Earlier results, collected in patent publication US20080014228A1, “Solid form” (priority 2006, published 2008).

In the case of `CC(=O)Nc1ccc(O)cc1` [acetaminophen], the solubility in water is given as “sparingly soluble (sparingly soluble in water (1 g in 30 to 100 g of water))”.
